This passage reports binding results from paper PMC12080455.

Chains of the proteins cited; added tags and fusions are not shown. Lines headed by an entry give the natural chain unless they say otherwise; changes in a name come on top.
UniProt Q14839: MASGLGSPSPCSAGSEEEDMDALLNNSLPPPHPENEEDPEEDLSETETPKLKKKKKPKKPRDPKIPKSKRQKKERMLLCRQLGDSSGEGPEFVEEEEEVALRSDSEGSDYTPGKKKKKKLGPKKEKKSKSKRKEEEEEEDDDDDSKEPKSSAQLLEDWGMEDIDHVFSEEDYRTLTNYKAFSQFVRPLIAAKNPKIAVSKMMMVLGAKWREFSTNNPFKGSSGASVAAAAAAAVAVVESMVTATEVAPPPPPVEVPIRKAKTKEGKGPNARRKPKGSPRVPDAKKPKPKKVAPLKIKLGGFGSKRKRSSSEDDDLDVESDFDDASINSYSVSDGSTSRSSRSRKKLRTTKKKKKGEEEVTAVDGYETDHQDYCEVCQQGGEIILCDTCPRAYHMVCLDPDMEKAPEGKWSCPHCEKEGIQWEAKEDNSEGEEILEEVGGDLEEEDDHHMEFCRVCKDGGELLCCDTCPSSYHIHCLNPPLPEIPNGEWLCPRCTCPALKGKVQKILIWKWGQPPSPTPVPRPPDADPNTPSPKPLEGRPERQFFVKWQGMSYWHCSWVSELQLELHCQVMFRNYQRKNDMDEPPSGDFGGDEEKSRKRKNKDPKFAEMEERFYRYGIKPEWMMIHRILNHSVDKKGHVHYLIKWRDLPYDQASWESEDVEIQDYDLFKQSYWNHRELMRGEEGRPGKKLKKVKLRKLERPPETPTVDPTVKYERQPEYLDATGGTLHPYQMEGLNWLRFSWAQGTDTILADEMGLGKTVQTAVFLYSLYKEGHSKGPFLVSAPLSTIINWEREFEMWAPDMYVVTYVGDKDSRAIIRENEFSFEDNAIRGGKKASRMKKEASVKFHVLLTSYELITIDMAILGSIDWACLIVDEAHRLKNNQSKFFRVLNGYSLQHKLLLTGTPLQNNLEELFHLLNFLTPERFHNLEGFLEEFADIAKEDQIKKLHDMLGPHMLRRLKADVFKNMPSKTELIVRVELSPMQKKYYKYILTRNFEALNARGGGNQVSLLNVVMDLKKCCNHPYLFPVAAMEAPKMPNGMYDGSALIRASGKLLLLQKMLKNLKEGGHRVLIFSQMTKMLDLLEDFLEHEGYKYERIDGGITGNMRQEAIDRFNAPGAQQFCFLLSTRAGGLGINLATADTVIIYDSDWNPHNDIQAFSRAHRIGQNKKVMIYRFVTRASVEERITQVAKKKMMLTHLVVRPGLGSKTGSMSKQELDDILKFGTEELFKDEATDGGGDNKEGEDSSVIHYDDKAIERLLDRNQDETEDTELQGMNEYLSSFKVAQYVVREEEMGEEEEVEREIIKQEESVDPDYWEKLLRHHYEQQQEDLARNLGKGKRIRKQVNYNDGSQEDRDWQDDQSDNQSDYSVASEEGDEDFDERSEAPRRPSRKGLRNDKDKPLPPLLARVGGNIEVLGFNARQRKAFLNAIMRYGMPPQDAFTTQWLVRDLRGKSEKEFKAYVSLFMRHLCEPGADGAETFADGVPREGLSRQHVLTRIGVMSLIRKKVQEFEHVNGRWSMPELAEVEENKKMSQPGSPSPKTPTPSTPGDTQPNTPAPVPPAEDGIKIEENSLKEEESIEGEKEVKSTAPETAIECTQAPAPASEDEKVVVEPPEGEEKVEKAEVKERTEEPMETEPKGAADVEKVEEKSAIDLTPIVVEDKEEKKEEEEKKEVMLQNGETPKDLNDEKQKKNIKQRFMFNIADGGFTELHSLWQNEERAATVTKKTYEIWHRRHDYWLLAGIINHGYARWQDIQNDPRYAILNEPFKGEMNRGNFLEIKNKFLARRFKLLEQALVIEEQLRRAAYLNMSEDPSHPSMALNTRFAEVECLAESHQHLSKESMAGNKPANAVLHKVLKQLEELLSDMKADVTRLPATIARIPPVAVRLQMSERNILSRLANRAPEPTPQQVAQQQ
UniProt Q8TDI0: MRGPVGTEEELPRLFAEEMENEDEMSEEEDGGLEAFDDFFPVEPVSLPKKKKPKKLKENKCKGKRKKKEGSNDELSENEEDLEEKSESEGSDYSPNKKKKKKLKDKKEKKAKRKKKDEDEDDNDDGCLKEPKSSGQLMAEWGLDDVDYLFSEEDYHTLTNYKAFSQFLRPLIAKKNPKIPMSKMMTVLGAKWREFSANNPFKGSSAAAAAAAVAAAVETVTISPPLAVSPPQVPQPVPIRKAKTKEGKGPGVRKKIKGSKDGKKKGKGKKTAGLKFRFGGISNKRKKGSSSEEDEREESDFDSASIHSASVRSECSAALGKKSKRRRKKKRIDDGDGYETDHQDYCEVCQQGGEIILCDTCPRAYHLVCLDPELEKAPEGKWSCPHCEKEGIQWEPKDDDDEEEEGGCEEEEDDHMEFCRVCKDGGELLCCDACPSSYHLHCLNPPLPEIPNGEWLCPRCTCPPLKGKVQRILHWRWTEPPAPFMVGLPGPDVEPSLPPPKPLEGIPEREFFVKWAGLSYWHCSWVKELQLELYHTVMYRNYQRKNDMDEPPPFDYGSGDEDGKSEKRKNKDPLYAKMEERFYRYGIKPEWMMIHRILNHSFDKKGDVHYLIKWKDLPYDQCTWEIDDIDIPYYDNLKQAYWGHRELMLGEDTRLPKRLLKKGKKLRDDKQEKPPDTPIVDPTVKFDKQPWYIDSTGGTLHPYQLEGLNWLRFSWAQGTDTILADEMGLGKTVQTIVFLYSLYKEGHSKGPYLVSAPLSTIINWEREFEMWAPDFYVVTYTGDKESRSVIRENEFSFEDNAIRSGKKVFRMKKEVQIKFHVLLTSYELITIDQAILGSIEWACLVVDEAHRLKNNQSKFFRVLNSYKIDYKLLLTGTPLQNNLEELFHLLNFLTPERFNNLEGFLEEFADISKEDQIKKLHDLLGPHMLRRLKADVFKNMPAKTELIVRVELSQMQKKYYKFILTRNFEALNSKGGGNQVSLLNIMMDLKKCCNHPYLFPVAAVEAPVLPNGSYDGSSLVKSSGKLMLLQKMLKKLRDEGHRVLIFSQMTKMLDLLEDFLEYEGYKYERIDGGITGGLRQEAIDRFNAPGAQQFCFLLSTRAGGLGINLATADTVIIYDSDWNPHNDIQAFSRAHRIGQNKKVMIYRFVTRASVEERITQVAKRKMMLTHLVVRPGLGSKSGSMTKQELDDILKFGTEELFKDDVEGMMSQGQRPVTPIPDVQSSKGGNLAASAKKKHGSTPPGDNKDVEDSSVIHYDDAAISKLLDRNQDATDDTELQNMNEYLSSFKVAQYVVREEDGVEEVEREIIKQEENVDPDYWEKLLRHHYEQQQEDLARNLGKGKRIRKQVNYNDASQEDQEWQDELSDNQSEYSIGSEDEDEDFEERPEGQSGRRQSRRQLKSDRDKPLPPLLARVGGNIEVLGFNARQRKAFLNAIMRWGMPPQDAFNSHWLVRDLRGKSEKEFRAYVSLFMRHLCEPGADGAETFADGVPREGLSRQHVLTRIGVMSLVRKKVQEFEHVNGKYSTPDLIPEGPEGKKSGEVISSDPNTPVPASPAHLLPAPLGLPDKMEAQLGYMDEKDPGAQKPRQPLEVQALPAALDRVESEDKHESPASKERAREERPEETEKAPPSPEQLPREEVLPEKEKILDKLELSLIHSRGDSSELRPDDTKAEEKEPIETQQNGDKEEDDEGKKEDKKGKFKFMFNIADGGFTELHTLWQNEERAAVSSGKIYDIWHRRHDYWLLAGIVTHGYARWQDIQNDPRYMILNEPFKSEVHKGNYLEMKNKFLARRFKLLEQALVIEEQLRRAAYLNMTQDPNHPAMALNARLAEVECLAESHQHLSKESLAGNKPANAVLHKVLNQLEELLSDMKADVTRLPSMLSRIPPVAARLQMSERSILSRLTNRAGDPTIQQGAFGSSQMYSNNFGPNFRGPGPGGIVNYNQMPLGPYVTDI
UniProt Q9BY89: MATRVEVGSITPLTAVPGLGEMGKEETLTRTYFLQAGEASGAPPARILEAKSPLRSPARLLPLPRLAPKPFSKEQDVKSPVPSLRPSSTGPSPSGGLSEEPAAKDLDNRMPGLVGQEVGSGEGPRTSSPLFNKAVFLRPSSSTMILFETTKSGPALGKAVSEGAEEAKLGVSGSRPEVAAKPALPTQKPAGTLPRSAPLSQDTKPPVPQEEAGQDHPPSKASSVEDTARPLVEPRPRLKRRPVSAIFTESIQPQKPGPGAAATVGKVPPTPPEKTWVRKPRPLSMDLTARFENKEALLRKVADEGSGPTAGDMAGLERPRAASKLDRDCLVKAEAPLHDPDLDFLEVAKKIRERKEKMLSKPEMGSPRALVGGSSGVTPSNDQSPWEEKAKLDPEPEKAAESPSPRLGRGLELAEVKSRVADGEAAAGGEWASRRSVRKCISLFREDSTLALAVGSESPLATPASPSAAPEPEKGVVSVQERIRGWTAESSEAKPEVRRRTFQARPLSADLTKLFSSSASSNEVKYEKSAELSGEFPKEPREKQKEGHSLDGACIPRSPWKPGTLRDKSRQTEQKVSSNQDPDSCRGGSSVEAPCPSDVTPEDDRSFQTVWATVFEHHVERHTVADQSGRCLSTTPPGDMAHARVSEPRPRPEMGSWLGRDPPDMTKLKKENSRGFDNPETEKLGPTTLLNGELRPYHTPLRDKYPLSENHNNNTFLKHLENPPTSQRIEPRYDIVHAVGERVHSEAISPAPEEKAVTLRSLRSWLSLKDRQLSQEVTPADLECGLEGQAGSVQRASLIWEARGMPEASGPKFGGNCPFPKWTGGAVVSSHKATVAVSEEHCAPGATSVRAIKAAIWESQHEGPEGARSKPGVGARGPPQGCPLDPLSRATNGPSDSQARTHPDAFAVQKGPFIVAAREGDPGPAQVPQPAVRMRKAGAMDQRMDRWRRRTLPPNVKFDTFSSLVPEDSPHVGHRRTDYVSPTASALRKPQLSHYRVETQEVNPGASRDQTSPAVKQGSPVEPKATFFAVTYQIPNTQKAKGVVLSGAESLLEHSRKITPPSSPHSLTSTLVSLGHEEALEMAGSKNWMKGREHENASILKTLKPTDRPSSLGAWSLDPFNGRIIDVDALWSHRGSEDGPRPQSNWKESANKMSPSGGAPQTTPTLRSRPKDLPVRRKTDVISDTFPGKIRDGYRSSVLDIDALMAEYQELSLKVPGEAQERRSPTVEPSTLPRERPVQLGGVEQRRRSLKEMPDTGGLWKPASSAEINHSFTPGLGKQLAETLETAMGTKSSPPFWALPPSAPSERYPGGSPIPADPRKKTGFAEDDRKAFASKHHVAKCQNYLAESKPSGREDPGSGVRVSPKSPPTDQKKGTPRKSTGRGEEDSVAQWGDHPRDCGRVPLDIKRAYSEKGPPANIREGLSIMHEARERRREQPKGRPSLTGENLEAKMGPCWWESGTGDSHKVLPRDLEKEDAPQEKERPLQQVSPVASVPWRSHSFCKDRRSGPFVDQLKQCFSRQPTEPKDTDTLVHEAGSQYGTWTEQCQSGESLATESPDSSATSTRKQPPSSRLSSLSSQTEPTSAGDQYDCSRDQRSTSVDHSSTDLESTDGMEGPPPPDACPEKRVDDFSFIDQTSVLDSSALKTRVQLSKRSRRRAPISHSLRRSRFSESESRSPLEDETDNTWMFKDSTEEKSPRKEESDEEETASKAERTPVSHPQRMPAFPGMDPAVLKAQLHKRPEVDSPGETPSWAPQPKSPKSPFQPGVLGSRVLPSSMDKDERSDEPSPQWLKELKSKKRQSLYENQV

Holding throughout (assay): affinity purification with mass spectrometry; FLAG-tagged CHD N- or C-terminal fragment overexpressed in Expi293 cells; nuclear fraction lysed in 50 mM Tris-HCl, 150 mM NaCl, 0.5% IGEPAL, pH 7.5, with nuclease and sonication; FLAG antibody beads 2 h; washes with 200 mM NaCl; against FLAG empty vector; triplicate
The target in assay [1] is FLAG-tagged CHD3 C-terminus (human) (UniProt Q12873).
In assay [2] the target is FLAG-tagged CHD4 C-terminus (human) (UniProt Q14839).
Assay [3] deals with FLAG-tagged CHD5 C-terminus (human) (UniProt Q8TDI0).
Assay [4] deals with FLAG-tagged CHD9 N-terminus (human) (UniProt Q3L8U1).

Results are given in words; binding and its absence hold for the method and conditions named. In cells and extracts the contact can be indirect. These calls come from enrichment with a bait or labelling near it, and not all partners need be listed.

As to KIAA1671 (from UniProt Q9BY89 1-1806), the binding result in assay [1], in assay [2] and in assay [3] was “binds” in each case.

B1: zinc finger MYM‐type‐containing (ZMYM2) (protein, UniProt Q9UBW7 1-1377)
chain: MDTSSVGGLELTDQTPVLLGSTAMATSLTNVGNSFSGPANPLVSRSNKFQNSSVEDDDDVVFIEPVQPPPPSVPVVADQRTITFTSSKNEELQGNDSKITPSSKELASQKGSVSETIVIDDEEDMETNQGQEKNSSNFIERRPPETKNRTNDVDFSTSSFSRSKVNAGMGNSGITTEPDSEIQIANVTTLETGVSSVNDGQLENTDGRDMNLMITHVTSLQNTNLGDVSNGLQSSNFGVNIQTYTPSLTSQTKTGVGPFNPGRMNVAGDVFQNGESATHHNPDSWISQSASFPRNQKQPGVDSLSPVASLPKQIFQPSVQQQPTKPVKVTCANCKKPLQKGQTAYQRKGSAHLFCSTTCLSSFSHKPAPKKLCVMCKKDITTMKGTIVAQVDSSESFQEFCSTSCLSLYEDKQNPTKGALNKSRCTICGKLTEIRHEVSFKNMTHKLCSDHCFNRYRMANGLIMNCCEQCGEYLPSKGAGNNVLVIDGQQKRFCCQSCVSEYKQVGSHPSFLKEVRDHMQDSFLMQPEKYGKLTTCTGCRTQCRFFDMTQCIGPNGYMEPYCSTACMNSHKTKYAKSQSLGIICHFCKRNSLPQYQATMPDGKLYNFCNSSCVAKFQALSMQSSPNGQFVAPSDIQLKCNYCKNSFCSKPEILEWENKVHQFCSKTCSDDYKKLHCIVTYCEYCQEEKTLHETVNFSGVKRPFCSEGCKLLYKQDFARRLGLRCVTCNYCSQLCKKGATKELDGVVRDFCSEDCCKKFQDWYYKAARCDCCKSQGTLKERVQWRGEMKHFCDQHCLLRFYCQQNEPNMTTQKGPENLHYDQGCQTSRTKMTGSAPPPSPTPNKEMKNKAVLCKPLTMTKATYCKPHMQTKSCQTDDTWRTEYVPVPIPVPVYIPVPMHMYSQNIPVPTTVPVPVPVPVFLPAPLDSSEKIPAAIEELKSKVSSDALDTELLTMTDMMSEDEGKTETTNINSVIIETDIIGSDLLKNSDPETQSSMPDVPYEPDLDIEIDFPRAAEELDMENEFLLPPVFGEEYEEQPRPRSKKKGAKRKAVSGYQSHDDSSDNSECSFPFKYTYGVNAWKHWVKTRQLDEDLLVLDELKSSKSVKLKEDLLSHTTAELNYGLAHFVNEIRRPNGENYAPDSIYYLCLGIQEYLCGSNRKDNIFIDPGYQTFEQELNKILRSWQPSILPDGSIFSRVEEDYLWRIKQLGSHSPVALLNTLFYFNTKYFGLKTVEQHLRLSFGTVFRHWKKNPLTMENKACLRYQVSSLCGTDNEDKITTGKRKHEDDEPVFEQIENTANPSRCPVKMFECYLSKSPQNLNQRMDVFYLQPECSSSTDSPVWYTSTSLDRNTLENMLVRVLLVKDIYDKDNYELDEDTD
With B1, in assay [4], the binding entry is on record as “binds”.
